# Values of other authors, collected in patent publication US11679240B2, “Removable covers for drug eluting medical devices” (W. L. Gore & Associates, Inc., priority 2014, dated 2023).
smiles,measurement,setting,value
CC(=O)O[C@H]1C(=O)[C@@]2(C)[C@H]([C@H](OC(=O)c3ccccc3)[C@]3(O)C[C@H](OC(=O)[C@H](O)[C@@H](NC(=O)c4ccccc4)c4ccccc4)C(C)=C1C3(C)C)[C@]1(OC(C)=O)CO[C@@H]1C[C@@H]2O [paclitaxel],solubility limit,"neat DI-water, room temperature",about 0.4 μM
same,solubilized concentration of paclitaxel in solution,with hydroxypropyl-β-cyclodextrin at 60% (w/v in water),approximately 4 mM
